# Data reported in the supplement of paper PMC8728848.
# The other results are listed elsewhere or left out.
# Columns and labels:
# Assay in all cases: glycan array binding signal (z-score within array); higher = stronger binding
# Conditions in all cases: glycan notation: IUPAC condensed, linker removed
# [1] = molecular target: Neu5Ac(a2-3)Gal(b1-4)GlcNAc(b1-2)Man(a1-3)[GlcNAc(b1-2)Man(b1-4)GlcNAc(b1-2)Man(a1-6)]Man(b1-4)GlcNAc(b1-4)GlcNAc
# How it was run: (§1)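 From the Consortium for Functional Glycomics database, 3228 arrays were curated, keeping only those whose protein sequence was available. Binding is given as a within-array Z-score averaged across arrays sharing a protein sequence and across linkers. Negative Z-scores can be read as non-binding.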
# [2] = molecular target: Neu5Ac(a2-3)Gal(b1-4)GlcNAc(b1-2)Man(a1-3)[Neu5Ac(a2-6)Gal(b1-4)GlcNAc(b1-2)Man(a1-6)]Man(b1-4)GlcNAc(b1-4)GlcNAc
# How it was run: as §1
# [3] = molecular target: Neu5Ac(a2-3)Gal(b1-4)GlcNAc(b1-3)Gal
# How it was run: as §1
# [4] = molecular target: Neu5Ac(a2-3)Gal(b1-4)GlcNAc(b1-3)Gal(b1-3)GlcNAc
# How it was run: as §1
# [5] = molecular target: Neu5Ac(a2-3)Gal(b1-4)GlcNAc(b1-3)Gal(b1-4)GlcNAc
# How it was run: as §1
# [6] = molecular target: Neu5Ac(a2-3)Gal(b1-4)GlcNAc(b1-3)Gal(b1-4)GlcNAc(b1-3)Gal(b1-4)GlcNAc
# How it was run: as §1
# [7] = molecular target: Neu5Ac(a2-3)Gal(b1-4)GlcNAc(b1-3)Gal(b1-4)[Fuc(a1-3)]GlcNAc
# How it was run: as §1
# [8] = molecular target: Neu5Ac(a2-3)Gal(b1-4)GlcNAc(b1-3)GalNAc
# How it was run: as §1
# [9] = molecular target: Neu5Ac(a2-3)Gal(b1-4)GlcNAc(b1-6)[Gal(b1-3)]GalNAc
# How it was run: as §1
# [10] = molecular target: Neu5Ac(a2-3)Gal(b1-4)GlcNAc(b1-6)[Neu5Ac(a2-3)Gal(b1-3)]GalNAc
# How it was run: as §1
# [11] = molecular target: Neu5Ac(a2-3)Gal(b1-4)GlcNAc6S
# How it was run: as §1
# [12] = molecular target: Neu5Ac(a2-3)Gal(b1-4)[Fuc(a1-3)]GlcNAc
# How it was run: as §1
# [13] = molecular target: Neu5Ac(a2-3)Gal(b1-4)[Fuc(a1-3)]GlcNAc(b1-3)Gal
# How it was run: as §1
# [14] = molecular target: Neu5Ac(a2-3)Gal(b1-4)[Fuc(a1-3)]GlcNAc(b1-3)Gal(b1-4)GlcNAc
# How it was run: as §1
# [15] = molecular target: Neu5Ac(a2-3)Gal(b1-4)[Fuc(a1-3)]GlcNAc(b1-3)Gal(b1-4)[Fuc(a1-3)]GlcNAc(b1-3)Gal(b1-4)[Fuc(a1-3)]GlcNAc
# How it was run: as §1
# [16] = molecular target: Neu5Ac(a2-3)Gal(b1-4)[Fuc(a1-3)]GlcNAc(b1-3)GalNAc
# How it was run: as §1
# [17] = molecular target: Neu5Ac(a2-3)Gal(b1-4)[Fuc(a1-3)]GlcNAc(b1-6)[Gal(b1-3)]GalNAc
# How it was run: as §1
# [18] = molecular target: Neu5Ac(a2-3)Gal(b1-4)[Fuc(a1-3)]GlcNAc(b1-6)[Neu5Ac(a2-3)Gal(b1-3)]GalNAc
# How it was run: as §1
# [19] = molecular target: Neu5Ac(a2-3)Gal(b1-4)[Fuc(a1-3)]GlcNAc6S
# How it was run: as §1
# [20] = molecular target: Neu5Ac(a2-3)Gal6S(b1-4)GlcNAc
# How it was run: as §1
# [21] = molecular target: Neu5Ac(a2-3)Gal6S(b1-4)[Fuc(a1-3)]GlcNAc
# How it was run: as §1
# Neu5Ac(a2-3)GalNAc = molecular target: Neu5Ac(a2-3)GalNAc
# How it was run: as §1
# [22] = molecular target: Neu5Ac(a2-3)GalNAc(b1-4)GlcNAc
# How it was run: as §1
# [23] = molecular target: Neu5Ac(a2-3)[GalNAc(b1-4)]Gal(b1-4)Glc
# How it was run: as §1
# [24] = molecular target: Neu5Ac(a2-3)[GalNAc(b1-4)]Gal(b1-4)GlcNAc
# How it was run: as §1
# [25] = molecular target: Neu5Ac(a2-3)[GalNAc(b1-4)]Gal(b1-4)GlcNAc(b1-3)GalNAc
# How it was run: as §1
# [26] = molecular target: Neu5Ac(a2-3)[Neu5Ac(a2-6)]GalNAc
# How it was run: as §1
# Neu5Ac(a2-6)Gal = molecular target: Neu5Ac(a2-6)Gal
# How it was run: as §1
# [27] = molecular target: Neu5Ac(a2-6)Gal(b1-3)GlcNAc(b1-3)[Gal(b1-4)GlcNAc(b1-6)]Gal(b1-4)Glc
# How it was run: as §1
# Neu5Ac(a2-6)Gal(b1-4)Glc = molecular target: Neu5Ac(a2-6)Gal(b1-4)Glc
# How it was run: as §1
# [28] = molecular target: Neu5Ac(a2-6)Gal(b1-4)GlcNAc
# How it was run: as §1
# [29] = molecular target: Neu5Ac(a2-6)Gal(b1-4)GlcNAc(b1-2)Man(a1-3)Man(b1-4)GlcNAc(b1-4)GlcNAc
# How it was run: as §1
# [30] = molecular target: Neu5Ac(a2-6)Gal(b1-4)GlcNAc(b1-2)Man(a1-3)[Gal(b1-4)GlcNAc(b1-2)Man(a1-6)]Man(b1-4)GlcNAc(b1-4)GlcNAc
# How it was run: as §1
# [31] = molecular target: Neu5Ac(a2-6)Gal(b1-4)GlcNAc(b1-2)Man(a1-3)[GlcNAc(b1-2)Man(a1-6)]Man(b1-4)GlcNAc(b1-4)GlcNAc
# How it was run: as §1
# [32] = molecular target: Neu5Ac(a2-6)Gal(b1-4)GlcNAc(b1-2)Man(a1-3)[GlcNAc(b1-2)Man(b1-4)GlcNAc(b1-2)Man(a1-6)]Man(b1-4)GlcNAc(b1-4)GlcNAc
# How it was run: as §1
# [33] = molecular target: Neu5Ac(a2-6)Gal(b1-4)GlcNAc(b1-2)Man(a1-3)[Man(a1-6)]Man(b1-4)GlcNAc(b1-4)GlcNAc
# How it was run: as §1
# [34] = molecular target: Neu5Ac(a2-6)Gal(b1-4)GlcNAc(b1-2)Man(a1-3)[Neu5Ac(a2-6)Gal(b1-4)GlcNAc(b1-2)Man(a1-6)]Man(b1-4)GlcNAc(b1-4)GlcNAc
# How it was run: as §1
# [35] = molecular target: Neu5Ac(a2-6)Gal(b1-4)GlcNAc(b1-2)Man(a1-6)Man(b1-4)GlcNAc(b1-4)GlcNAc
# How it was run: as §1
# [36] = molecular target: Neu5Ac(a2-6)Gal(b1-4)GlcNAc(b1-2)Man(a1-6)[Gal(b1-4)GlcNAc(b1-2)Man(a1-3)]Man(b1-4)GlcNAc(b1-4)GlcNAc
# How it was run: as §1
# [37] = molecular target: Neu5Ac(a2-6)Gal(b1-4)GlcNAc(b1-2)Man(a1-6)[GlcNAc(b1-2)Man(a1-3)]Man(b1-4)GlcNAc(b1-4)GlcNAc
# How it was run: as §1
# [38] = molecular target: Neu5Ac(a2-6)Gal(b1-4)GlcNAc(b1-2)Man(a1-6)[Man(a1-3)]Man(b1-4)GlcNAc(b1-4)GlcNAc
# How it was run: as §1
# [39] = molecular target: Neu5Ac(a2-6)Gal(b1-4)GlcNAc(b1-3)Gal(b1-3)GlcNAc
# How it was run: as §1
# [40] = molecular target: Neu5Ac(a2-6)Gal(b1-4)GlcNAc(b1-3)Gal(b1-4)GlcNAc
# How it was run: as §1
# [41] = molecular target: Neu5Ac(a2-6)Gal(b1-4)GlcNAc(b1-3)Gal(b1-4)GlcNAc(b1-3)Gal(b1-4)GlcNAc
# How it was run: as §1
# [42] = molecular target: Neu5Ac(a2-6)Gal(b1-4)GlcNAc(b1-3)Gal(b1-4)[Fuc(a1-3)]GlcNAc(b1-3)Gal(b1-4)[Fuc(a1-3)]GlcNAc
# How it was run: as §1
binder,measurement,setting,value
"pullulanase (Streptococcus pyogenes), Q8KLP1 (protein) MKKKVNQGSKRYQYLLKKWGIGFVIAATGTVMLGCIPSILTHQVAAKTIVGLARDEAQQGDGNAKSGDGFQSSSKEAKPVLDSSSANPASIAEHHLRMHFKTLPAGESLGSLGLWVWGDVDQPSKDWPNGAITMTKAKKDDYGYYLDVPLAAKHRQQVSYLINNKAGENLSKDQHIPLLTPKMNEVWIDENYHAHAYRPLKKGYLRINYHNQSGHYDNLAVWTFKDVKTPTTDWPNGLDLSHKGPYGAYVDVPLKEGANEIGFLILDKSKTGDAIKVQPKDYLFKELDNHTQVFVKDTDPKVYNNPYYIDQVSLKGAEQTTPNEIKAIFTTLDGLDEDAVKQNIKITDKAGKTVAIDELTLDKDKSVMTLKGDFKAQGAVYTVTFGEVSQVARQSWQLKDKLYAYDGELGATLAKDGSVDLALWSPSADSVKVVVYDKQDQTKVVGQADLTKSDKGVWRAHLTSDSVKGISDYTGYYYLYEITRGQEKVMVLDPYAKSLAAWNDATATDDIKTAKAAFIDPSKLGPTGLDFAKINNFKKREDAIIYEAHVRDFTSDKALEGKLTHPFGTFSAFVEQLDYLKDLGVTHVQLLPVLSYFYANELDKTRSTAYTSSDNNYNWGYDPQHYFALSGMYSANPNDPALRIAELKNLVNEIHKRGMGVIFDVVYNHTARTYLFEDLEPNYYHFMNADGTARESFGGGRLGTTHAMSRRILVDSITYLTREFKVDGFRFDMMGDHDAAAIEQAFKAAKAINPNTIMIGEGWRTYQGDEGKKEIAADQDWMKATNTVGVFSDDIRNTLKSGFPNEGTAAFITGGAKNLEGLFKTIKAQPSNFEADAPGDVVQYIAAHDNLTLHDVIAKSINKDPKVAEEEIHKRIRLGNTMILTAQGTAFIHSGQEYGRTKQLLNPDYKTKVSDDKVPNKATLIDAVAQYPYFIHDSYDSSDAVNHFDWAKATDSIAHPISNQTKAYTQGLIALRRSTDAFTKATKAEVDRDVTLITQAGQDGIQQEDLIMGYQTVASNGDRYAVFVNADNKTRKVVLPQAYRYLLGAQVLADAEQVGVTAIAKPKGVQFTKEGLTIDGLTALVLKVSSKTANPSQQKSQTDNHQTKTPDGSKDLDKSLMTRPKRAKTNQKLPKTGEAPSKGLLAAGVALLLLAISLLMKRQKD",glycan array binding signal (z-score),[1],-0.652
same,glycan array binding signal (z-score),[2],0.569
same,glycan array binding signal (z-score),[3],-1.05
same,glycan array binding signal (z-score),[4],-0.862
same,glycan array binding signal (z-score),[5],1.61
same,glycan array binding signal (z-score),[6],-0.129
same,glycan array binding signal (z-score),[7],0.645
same,glycan array binding signal (z-score),[8],-0.432
same,glycan array binding signal (z-score),[9],-1.67
same,glycan array binding signal (z-score),[10],0.258
same,glycan array binding signal (z-score),[11],0.02
same,glycan array binding signal (z-score),[12],-0.881
same,glycan array binding signal (z-score),[13],0.15
same,glycan array binding signal (z-score),[14],-0.151
same,glycan array binding signal (z-score),[15],-0.078
same,glycan array binding signal (z-score),[16],2.87
same,glycan array binding signal (z-score),[17],1.57
same,glycan array binding signal (z-score),[18],-0.187
same,glycan array binding signal (z-score),[19],0.014
same,glycan array binding signal (z-score),[20],-0.777
same,glycan array binding signal (z-score),[21],-0.751
same,glycan array binding signal (z-score),Neu5Ac(a2-3)GalNAc,0.308
same,glycan array binding signal (z-score),[22],-1.38
same,glycan array binding signal (z-score),[23],1.41
same,glycan array binding signal (z-score),[24],-0.879
same,glycan array binding signal (z-score),[25],-1.29
same,glycan array binding signal (z-score),[26],-0.215
same,glycan array binding signal (z-score),Neu5Ac(a2-6)Gal,2.44
same,glycan array binding signal (z-score),[27],-1.49
same,glycan array binding signal (z-score),Neu5Ac(a2-6)Gal(b1-4)Glc,1.43
same,glycan array binding signal (z-score),[28],2.52
same,glycan array binding signal (z-score),[29],-1.49
same,glycan array binding signal (z-score),[30],1.12
same,glycan array binding signal (z-score),[31],0.206
same,glycan array binding signal (z-score),[32],0.099
same,glycan array binding signal (z-score),[33],-1.07
same,glycan array binding signal (z-score),[34],0.41
same,glycan array binding signal (z-score),[35],-1.2
same,glycan array binding signal (z-score),[36],-1.02
same,glycan array binding signal (z-score),[37],1.49
same,glycan array binding signal (z-score),[38],-0.542
same,glycan array binding signal (z-score),[39],-0.657
same,glycan array binding signal (z-score),[40],-0.052
same,glycan array binding signal (z-score),[41],0.583
same,glycan array binding signal (z-score),[42],-0.115
